Reference: PubChem BioAssay AID192 (DTP/NCI, 2004)
The list shows only some results of the screen, not a fair sample: it gathers tests that were run many times, whatever their T/C, doses with no T/C, and many T/C values between a quarter and a half above the control. Further doses and runs are listed elsewhere. T/C gives the treated animals as a percentage of the vehicle group. Some entries give survivors of the animals treated and no T/C: the source holds a T/C of zero for them, seemingly a mark for toxic or unscored doses. Some doses without a T/C left all or most animals alive at the check, yet need not have been tolerated: the source hardly ever lists a survival T/C far under the control, and the zero likely stands for such cases as well. Survivors were counted at the toxicity check, usually on the fifth day, unless a day is given; later deaths do not show. Schedule codes are those of the source, read here as Q, the interval in days (D) or hours (H), X, the number of doses. Some entries hold several experiments; their values stand side by side, smallest first. Where survival is the endpoint, this PubChem deposit counts one and a half times the control or more as active, and values a quarter to a half above the control carry no call in these data; other NCI protocols may use other cut-offs. Some T/C values carry the count of animals alive at the toxicity check (mostly the fifth day); where none is given, no animal had died by that day. Bridge positions count the residues as written; N and C are the ends. Square brackets hold non-standard residues; d marks the D form. Peptide text beside a SMILES is read from it. I, II: the chains in the order shown. * marks the point of attachment. Quinoxaline2carbonyl = O=C(c1cnc2ccccc2n1)*; NMeV = CN[CH](C(=O)O)C(C)C; NMeC = CN[CH](CS)C(=O)O

Test system: BDF1 mice, B16 melanoma ip, median survival T/C
Assay: NCI In Vivo Anticancer Drug Screen. Data for tumor model B16 Melanoma (intraperitoneal) in B6D2F1 (BDF1) mice
Details: T/C endpoint: median survival time, higher T/C = longer survival
Experimental: The antitumor activity of compounds was measured in mice bearing transplantable tumors. Survival or tumor size were measured and the results are expressed as the measurement made in the treated group (T) divided by the measurement made in the vehicle treated control group (C). The tumor model used in this assay is B16 Melanoma (intraperitoneal) in B6D2F1 (BDF1) mice

[1] = dose: 200.0 mg/kg/injection, schedule: Q01DX009 (ip), vehicle: saline with Tween-80
[2] = dose: 50.0 mg/kg/injection, schedule: Q01DX009 (ip), vehicle: saline with Tween-80
[3] = dose: 100.0 mg/kg/injection, schedule: Q01DX009 (ip), vehicle: saline with Tween-80
[4] = dose: 400.0 mg/kg/injection, schedule: Q01DX009 (ip), vehicle: Klucel (hydroxypropylcellulose) (HPC)
[5] = dose: 50.0 mg/kg/injection, schedule: Q01DX009 (ip), vehicle: Klucel (hydroxypropylcellulose) (HPC)

O=[N+]([O-])c1cc(Cl)c(Cl)cc1NS(=O)(=O)c1ccccc1
survivor count (dose: 600.0 mg/kg/injection, schedule: Q01DX009 (ip), vehicle: saline with Tween-80): 5 of 6

O=[N+]([O-])c1cc(Br)cc2c1nc(Cl)c1ccccc12
survivor count [1]: 5 of 6 | survivor count (dose: 400.0 mg/kg/injection, schedule: Q01DX009 (ip), vehicle: saline with Tween-80): 6 of 6

Cc1nn(C2CC(O)C(O)C(CO)O2)c(=O)[nH]c1=O (stereo unspecified)
survivor count (dose: 200.0 mg/kg/injection, schedule: Q01DX009 (ip), vehicle: saline): 10 of 10

COc1ccc(S(=O)(=O)N/N=C/C(=O)O)cc1
T/C (dose: 12.5 mg/kg/injection, schedule: Q01DX009 (ip), vehicle: other): 125 % of control | T/C (dose: 25.0 mg/kg/injection, schedule: Q01DX009 (ip), vehicle: other): 125 % of control | T/C (dose: 50.0 mg/kg/injection, schedule: Q01DX009 (ip), vehicle: other): 125 % of control | survivor count (dose: 100.0 mg/kg/injection, schedule: Q01DX009 (ip), vehicle: other): 10 of 10 | survivor count (dose: 200.0 mg/kg/injection, schedule: Q01DX009 (ip), vehicle: other): 5 of 10 | survivor count (dose: 400.0 mg/kg/injection, schedule: Q01DX009 (ip), vehicle: other): 3 of 10

COC1/C=C\C=C(/C)C(=O)NC2=CC(=O)C(=O)C(=C2O)CC(C)CC(OC)C(O)C(C)/C=C(\C)C1OC(N)=O (stereo unspecified)
survivor count (dose: 12.5 mg/kg/injection, schedule: Q01DX005 (ip), vehicle: other): 3 of 6 | survivor count (dose: 25.0 mg/kg/injection, schedule: Q01DX005 (ip), vehicle: other): 2 of 6 | survivor count (dose: 50.0 mg/kg/injection, schedule: Q01DX005 (ip), vehicle: other): 0 of 6 | survivor count (dose: 100.0 mg/kg/injection, schedule: Q01DX005 (ip), vehicle: other): 0 of 6 | survivor count (dose: 200.0 mg/kg/injection, schedule: Q01DX005 (ip), vehicle: other): 0 of 6

CC[C@@]1(O)C(=O)OCc2c1cc1n(c2=O)Cc2cc3c(OC)cccc3nc2-1
T/C (dose: 0.2 mg/kg/injection, schedule: Q01DX009 (ip), vehicle: other): 146 % of control [9 of 10 alive] | T/C (dose: 1.0 mg/kg/injection, schedule: Q01DX009 (ip), vehicle: Klucel (hydroxypropylcellulose) (HPC)): 147 % of control [9 of 10 alive] | T/C (dose: 1.0 mg/kg/injection, schedule: Q01DX009 (ip), vehicle: carboxymethylcellulose (CMC)): 148 % of control | survivor count (dose: 1.57 mg/kg/injection, schedule: Q01DX009 (ip), vehicle: other): 10 of 10 | T/C (dose: 2.0 mg/kg/injection, schedule: Q01DX009 (ip), vehicle: carboxymethylcellulose (CMC)): 147 % of control [9 of 10 alive] | survivor count (dose: 3.13 mg/kg/injection, schedule: Q01DX009 (ip), vehicle: other): 9 of 10 | survivor count (dose: 4.0 mg/kg/injection, schedule: Q01DX009 (ip), vehicle: Klucel (hydroxypropylcellulose) (HPC)): 10 of 10 | survivor count (dose: 6.25 mg/kg/injection, schedule: Q01DX009 (ip), vehicle: other): 5 of 10 | survivor count (dose: 8.0 mg/kg/injection, schedule: Q01DX009 (ip), vehicle: Klucel (hydroxypropylcellulose) (HPC)): 9 of 10 | survivor count (dose: 8.0 mg/kg/injection, schedule: Q01DX009 (ip), vehicle: carboxymethylcellulose (CMC)): 9 of 10

CC(=Nc1ccccc1)C1=C(O)C(Cc2ccc(O)cc2)NC1=O (stereo unspecified)
T/C (dose: 25.0 mg/kg/injection, schedule: Q01DX009 (ip), vehicle: saline with Tween-80, evaluated on day 50): 130 % of control | T/C (dose: 25.0 mg/kg/injection, schedule: Q01DX009 (ip), vehicle: saline with Tween-80, evaluated on day 60): 128 % of control | T/C [2]: 130 % of control | survivor count [2]: 10 of 10 | survivor count [3]: 7 of 10 and 10 of 10 | survivor count [1]: 10 of 10

CC(CN=Cc1ccccc1[O-])N=Cc1ccccc1[O-].[O]=[V] (stereo unspecified)
survivor count (dose: 10.0 mg/kg/injection, schedule: Q01DX009 (ip), vehicle: saline with Tween-80): 10 of 10 | survivor count (dose: 20.0 mg/kg/injection, schedule: Q04DX003 (ip), vehicle: saline with Tween-80): 7 of 10

Nc1ccc(C(=O)Oc2ccc([N+](=O)[O-])cc2)c(O)c1
survivor count [4]: 10 of 10

CCOC(=O)c1c(N)[nH]c(SSc2[nH]c(N)c(C(=O)OCC)c2C(=O)OCC)c1C(=O)OCC
survivor count (dose: 150.0 mg/kg/injection, schedule: Q01DX009 (ip), vehicle: saline): 10 of 10

CCOC(=O)C1C(=O)C(CN(CCCl)CCCl)C(=O)C(C(=O)OCC)C1c1ccc(O)cc1 (stereo unspecified)
T/C (dose: 3.12 mg/kg/injection, schedule: Q01DX009 (ip), vehicle: Klucel (hydroxypropylcellulose) (HPC)): 131 and 144 % of control | T/C (dose: 12.5 mg/kg/injection, schedule: Q01DX009 (ip), vehicle: Klucel (hydroxypropylcellulose) (HPC)): 129 % of control | T/C (dose: 25.0 mg/kg/injection, schedule: Q01DX009 (ip), vehicle: Klucel (hydroxypropylcellulose) (HPC)): 146 and 147 % of control | survivor count [5]: 10 of 10

c1ccc(-c2nc(N3CCOCC3)nc3ccccc23)cc1
survivor count (dose: 400.0 mg/kg/injection, schedule: Q04DX003 (ip), vehicle: saline with Tween-80): 10 of 10

N=Cc1c(O)[nH]c(=O)[nH]c1=O
survivor count (dose: 75.0 mg/kg/injection, schedule: Q01DX009 (ip), vehicle: Klucel (hydroxypropylcellulose) (HPC)): 10 of 10

CC1NC(=O)C(NC(=O)c2cnc3ccccc3n2)COC(=O)C(C(C)C)N(C)C(=O)C2CSSCC(C(=O)N(C)C(C(C)C)C(=O)OCC(NC(=O)c3cnc4ccccc4n3)C(=O)NC(C)C(=O)N2C)N(C)C1=O (stereo unspecified) (I: Quinoxaline2carbonyl-SA[NMeC][NMeV] / II: Quinoxaline2carbonyl-SA[NMeC][NMeV]; ester I:1-II:C, I:C-II:1; disulfide I:3-II:3; configuration not given here)
T/C (dose: 11.2 micrograms/kg/injection, schedule: Q01DX009 (ip), vehicle: Klucel (hydroxypropylcellulose) (HPC)): 140 % of control | T/C (dose: 12.0 micrograms/kg/injection, schedule: Q01DX009 (ip), vehicle: Klucel (hydroxypropylcellulose) (HPC)): 130 % of control | survivor count (dose: 90.0 micrograms/kg/injection, schedule: Q01DX009 (ip), vehicle: Klucel (hydroxypropylcellulose) (HPC)): 10 of 10 | survivor count (dose: 180.0 micrograms/kg/injection, schedule: Q01DX009 (ip), vehicle: Klucel (hydroxypropylcellulose) (HPC)): 9 of 10

CCCCCCCCCCCCCCCC[N+](C)(C)c1nc(Cl)nc(Cl)n1
survivor count (dose: 7.5 mg/kg/injection, schedule: Q01DX009 (ip), vehicle: saline with Tween-80): 6 of 6 | survivor count (dose: 15.0 mg/kg/injection, schedule: Q01DX009 (ip), vehicle: saline with Tween-80): 6 of 6 | survivor count (dose: 16.0 mg/kg/injection, schedule: Q01DX009 (ip), vehicle: saline with Tween-80): 6 of 6 | survivor count (dose: 30.0 mg/kg/injection, schedule: Q01DX009 (ip), vehicle: saline with Tween-80): 4 of 6 | survivor count (dose: 60.0 mg/kg/injection, schedule: Q01DX009 (ip), vehicle: saline with Tween-80): 1 of 6

Cc1ccn(C(N)=O)n1
survivor count [4]: 8 of 10

CCCC(=O)OCc1ccc(Cl)c(Cl)c1
T/C (dose: 25.0 mg/kg/injection, schedule: Q04DX003 (ip), vehicle: saline with Tween-80): 126 % of control

CC(=O)NC(Cc1ccc(N(CCCl)CCCl)cc1)C(=O)O (stereo unspecified)
T/C (dose: 12.5 mg/kg/injection, schedule: Q01DX009 (ip), vehicle: saline with Tween-80): 127 % of control | survivor count [2]: 10 of 10

COc1ccc(C2CCC(=O)CC2C(=O)O)cc1 (stereo unspecified)
survivor count (dose: 200.0 mg/kg/injection, schedule: Q04DX003 (ip), vehicle: Klucel (hydroxypropylcellulose) (HPC)): 10 of 10

COc1ccc(C(=S)N2CCN(c3ccccc3)CC2)cc1
survivor count (dose: 25.0 mg/kg/injection, schedule: Q01DX009 (ip), vehicle: saline with Tween-80): 9 of 10 | survivor count [2]: 10 of 10 | survivor count [3]: 10 of 10

NC(=O)c1nn(C2OC(CO)C(O)C2O)c2ncnc(N)c12 (stereo unspecified)
survivor count [5]: 3 of 10 | survivor count (dose: 100.0 mg/kg/injection, schedule: Q01DX009 (ip), vehicle: Klucel (hydroxypropylcellulose) (HPC)): 0 of 10 | survivor count (dose: 200.0 mg/kg/injection, schedule: Q01DX009 (ip), vehicle: Klucel (hydroxypropylcellulose) (HPC)): 0 of 10
